Measured values taken from patent US20030166873A1.
Results are given in words; binding and its absence hold for the method and conditions named. Some results given as binding are weak or reduced against the parent protein; the word gives no strength.

By UniProt entry, the sequences of proteins in these tests, tags left out. Residues count along the entry.
UniProt P17948, residues 27-758: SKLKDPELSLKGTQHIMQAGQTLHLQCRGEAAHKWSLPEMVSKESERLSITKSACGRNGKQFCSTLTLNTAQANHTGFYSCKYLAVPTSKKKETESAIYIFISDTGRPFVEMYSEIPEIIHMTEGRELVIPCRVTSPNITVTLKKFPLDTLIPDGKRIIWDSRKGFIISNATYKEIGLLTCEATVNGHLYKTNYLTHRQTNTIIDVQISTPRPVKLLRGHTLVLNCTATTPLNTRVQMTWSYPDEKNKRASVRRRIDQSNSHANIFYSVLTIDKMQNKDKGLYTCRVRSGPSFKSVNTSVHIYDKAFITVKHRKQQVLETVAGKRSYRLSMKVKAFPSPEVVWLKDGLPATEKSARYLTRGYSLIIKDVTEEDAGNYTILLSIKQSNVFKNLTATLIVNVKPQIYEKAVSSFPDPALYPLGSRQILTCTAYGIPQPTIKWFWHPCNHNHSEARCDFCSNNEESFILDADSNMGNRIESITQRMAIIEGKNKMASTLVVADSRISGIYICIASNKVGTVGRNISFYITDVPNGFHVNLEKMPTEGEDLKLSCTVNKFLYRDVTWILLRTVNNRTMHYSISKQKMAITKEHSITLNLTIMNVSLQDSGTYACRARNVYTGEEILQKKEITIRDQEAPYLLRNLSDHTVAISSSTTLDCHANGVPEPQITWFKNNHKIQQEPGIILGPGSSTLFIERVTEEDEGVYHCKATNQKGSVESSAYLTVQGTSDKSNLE

Molecular target: T1, PlGF152 (expression plasmid of Park et al.) (UniProt P49763)
T1 sequence (35S-labeled amino acids, looked up): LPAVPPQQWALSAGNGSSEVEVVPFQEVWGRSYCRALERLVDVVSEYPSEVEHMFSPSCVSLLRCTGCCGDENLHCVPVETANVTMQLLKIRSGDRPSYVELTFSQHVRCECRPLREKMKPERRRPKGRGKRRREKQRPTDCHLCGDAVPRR
Assay: receptor IgG / protein A precipitation of 35S-labeled COS7 conditioned medium

binding: binds
Substance: Flt1/IgG (from UniProt P17948 27-758) (Fc fusion)
